{"source": "patent US20040014648A1", "about": "“Methods for the prevention and/or the treatment of neurological disorders” (FAUST PHARMACEUTICALS, priority 2002, published 2004)", "tested_on": "primary cultures of neurons, isolated from the rat brain cortex", "conditions": "kainic acid 100 μM; compound at 0.1, 1 and 5 μM (lanes 3-5); FIG. 3"}
{"smiles": "CN1C(=O)CN=C(c2ccccc2)c2cc(Cl)ccc21", "note": "[Diazepam]", "values": [{"measurement": "neuroprotective effect against kainic acid", "result": "neuroprotective effect of Diazepam observed at all concentrations"}]}
